PubChem BioAssay AID743121 | NCATS, 2013
Assay: 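Knock-downs that sensitise breast cancer cells to camptothecin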 (primary screen). Cells: MDA-MB-231 cells, a human breast cancer line. Reagents: single siRNA against human genes, 20 nM siRNA (0.8 pmol per well). Time to read-out: 120 h (drug added 48 h after transfection, read 72 h later). Conditions: camptothecin 20 nM (about EC30) for 72 h; vehicle 0.1% DMSO in parallel plates. Measured: 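Cell viability by ATP luminescence (CellTiter-Glo) as % of non-targeting siRNA wells, and the log2 ratio of viability without drug over viability with camptothecin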. Scale: log2 vehicle/camptothecin viability: higher = stronger sensitisation to camptothecin; viability with camptothecin and viability without drug: higher = more viable cells. Hit rule: 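Each gene scored by redundant siRNA activity (RSA) over its individual siRNA ratios; a gene is called active at p < 0.001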.
In all, the deposit lists about 26,000 reagents; below is a random part of them. 167 of them (0.63%) count as active. 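Calls are per gene from RSA p-values that are not deposited; an individual active-marked siRNA can sensitise only weakly.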 Entries without a mark were called inactive. Reagents against one gene are numbered here.

Gene | siRNA no. | log2 vehicle/camptothecin viability | viability with camptothecin (% of control) | viability without drug (% of control)
ADGRE5 | 1 | 0.614 | 37.5 | 57.3
ADGRE5 | 2 | -0.691 | 57.4 | 35.6
ADGRE5 | 3 | -0.209 | 45.7 | 39.5
ADGRE5 | 4 | 0.0289 | 84.1 | 85.8
PROKR1 | 1 | -0.411 | 96.2 | 72.4
PROKR1 | 2 | -0.365 | 17.7 | 13.7
PROKR1 | 3 | -0.127 | 98 | 89.8
PROKR1 | 4 | -0.208 | 23.2 | 20.1
NAIP | 1 | -0.206 | 91.4 | 79.3
NAIP | 2 | -0.0504 | 81.3 | 78.5
NAIP | 3 | 0.187 | 44.5 | 50.6
NAIP | 4 | 0.083 | 82.4 | 87.3
ROR1 | 1 | 0.19 | 79.2 | 90.4
ROR1 | 2 | -0.12 | 103 | 95.1
ROR1 | 3 | -0.16 | 61.9 | 55.4
ROR1 | 4 | 1.05 | 47.3 | 98
PPBP | 1 | -0.38 | 50.1 | 38.5
PPBP | 2 | -0.516 | 74.5 | 52.1
PPBP | 3 | -0.124 | 94.8 | 87
PPBP | 4 | -0.242 | 106 | 89.4
PAN3 | 1 | 0.187 | 61.8 | 70.3
PAN3 | 2 | -0.0263 | 79.3 | 77.9
PAN3 | 3 | -0.0252 | 87.9 | 86.4
PAN3 | 4 | -0.00103 | 64.6 | 64.5
MCM3 | 1 | 0.695 | 41 | 66.4
MCM3 | 2 | -0.4 | 70.4 | 53.4
MCM3 | 3 | -0.0216 | 85.7 | 84.4
PLAAT2 | 1 | -0.00816 | 95.4 | 94.8
PLAAT2 | 2 | 0.836 | 35.9 | 64.1
PLAAT2 | 3 | 0.0712 | 87 | 91.4

Entries above whose target name starts with N or n:
Gene | siRNA no. | log2 vehicle/camptothecin viability | viability with camptothecin (% of control) | viability without drug (% of control)
NAIP | 1 | -0.206 | 91.4 | 79.3
NAIP | 2 | -0.0504 | 81.3 | 78.5
NAIP | 3 | 0.187 | 44.5 | 50.6
NAIP | 4 | 0.083 | 82.4 | 87.3
